Reference: patent publication EP2929785A1, “A PLA inhibitor for inhibition of fat absorption” (PAT GmbH, priority 2014, dated 2015)
Results are given in words; binding and its absence hold for the method and conditions named. For some assays here: In cells and extracts the contact can be indirect. Some binding calls cover weakened binding; strength is not graded here.

The chains behind the UniProt entries cited, without tags or fusion partners. Residues count along the entry.
UniProt Q03135, residues 2-178: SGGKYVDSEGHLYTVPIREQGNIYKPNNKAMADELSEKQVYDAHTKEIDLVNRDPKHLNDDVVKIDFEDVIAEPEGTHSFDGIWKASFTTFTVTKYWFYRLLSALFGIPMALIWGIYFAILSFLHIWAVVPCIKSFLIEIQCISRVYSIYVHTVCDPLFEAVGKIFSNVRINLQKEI
UniProt P16671, residues 2-472: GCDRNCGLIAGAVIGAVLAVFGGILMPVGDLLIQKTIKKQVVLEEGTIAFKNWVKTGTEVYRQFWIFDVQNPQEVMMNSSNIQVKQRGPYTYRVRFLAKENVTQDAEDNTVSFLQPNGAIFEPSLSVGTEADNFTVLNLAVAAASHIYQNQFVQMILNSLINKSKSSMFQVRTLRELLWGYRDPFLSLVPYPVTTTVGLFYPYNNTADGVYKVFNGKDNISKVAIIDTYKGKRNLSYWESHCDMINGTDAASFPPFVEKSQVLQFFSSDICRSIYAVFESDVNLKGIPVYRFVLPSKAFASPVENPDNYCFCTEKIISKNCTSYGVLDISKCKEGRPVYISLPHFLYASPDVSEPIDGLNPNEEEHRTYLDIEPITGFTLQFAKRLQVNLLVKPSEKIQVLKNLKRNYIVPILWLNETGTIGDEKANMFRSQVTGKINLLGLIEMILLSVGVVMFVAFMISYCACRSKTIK

T1: plasma membrane fatty acid-binding protein (FABPPM) (human) (UniProt P00505)
T1 sequence (looked up): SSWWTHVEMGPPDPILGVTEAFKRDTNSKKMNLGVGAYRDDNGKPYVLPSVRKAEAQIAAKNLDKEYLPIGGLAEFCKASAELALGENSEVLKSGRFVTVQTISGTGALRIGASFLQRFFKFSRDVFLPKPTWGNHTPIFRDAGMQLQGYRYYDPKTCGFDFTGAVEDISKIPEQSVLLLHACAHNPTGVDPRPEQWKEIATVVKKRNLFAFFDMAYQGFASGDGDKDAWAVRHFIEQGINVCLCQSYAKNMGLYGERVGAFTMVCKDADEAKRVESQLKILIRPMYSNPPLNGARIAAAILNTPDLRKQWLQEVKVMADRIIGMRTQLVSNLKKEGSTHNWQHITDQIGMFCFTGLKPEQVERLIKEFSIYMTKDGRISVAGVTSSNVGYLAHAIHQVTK

T2: calcium-independent membrane phospholipase A2 (iPLA2ß) (human) (UniProt O60733)
T2 sequence (looked up): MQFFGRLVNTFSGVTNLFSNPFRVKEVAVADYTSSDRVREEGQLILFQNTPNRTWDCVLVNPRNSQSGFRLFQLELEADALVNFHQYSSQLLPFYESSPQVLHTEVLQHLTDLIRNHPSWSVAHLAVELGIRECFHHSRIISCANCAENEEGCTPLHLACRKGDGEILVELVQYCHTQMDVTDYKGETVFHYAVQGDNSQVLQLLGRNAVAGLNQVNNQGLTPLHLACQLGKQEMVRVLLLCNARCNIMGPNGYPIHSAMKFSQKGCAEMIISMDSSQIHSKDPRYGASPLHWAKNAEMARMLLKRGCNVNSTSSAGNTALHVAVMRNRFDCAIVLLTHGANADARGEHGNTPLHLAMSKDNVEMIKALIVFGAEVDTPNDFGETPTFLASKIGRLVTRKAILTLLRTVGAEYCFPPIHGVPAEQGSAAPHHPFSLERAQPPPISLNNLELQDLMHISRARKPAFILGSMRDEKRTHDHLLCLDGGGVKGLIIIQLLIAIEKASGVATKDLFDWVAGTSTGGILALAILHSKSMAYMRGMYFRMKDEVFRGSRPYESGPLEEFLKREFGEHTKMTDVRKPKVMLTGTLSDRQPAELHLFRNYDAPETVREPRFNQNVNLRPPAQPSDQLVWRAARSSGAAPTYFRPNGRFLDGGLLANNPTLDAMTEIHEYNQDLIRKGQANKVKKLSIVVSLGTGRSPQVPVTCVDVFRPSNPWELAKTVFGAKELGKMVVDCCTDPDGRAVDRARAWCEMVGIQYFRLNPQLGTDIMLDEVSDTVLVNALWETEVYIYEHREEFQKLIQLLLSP


Key:
caveolin-1 (human) [1] = target: caveolin-1 (human) (UniProt Q03135); experiment: co-immunoprecipitation from HepG2 DRM-PM, western blot
[2] = target: T1, plasma membrane fatty acid-binding protein (FABPPM) (human); experiment: as above
caveolin-1 (human) [3] = target: caveolin-1 (human) (UniProt Q03135); experiment: co-immunoprecipitation from HepG2 DRM-PM, western blot (legend of Figure 3)
[4] = target: T1, plasma membrane fatty acid-binding protein (FABPPM) (human); experiment: as above
caveolin-1 (human) [5] = target: caveolin-1 (human) (UniProt Q03135); experiment: co-immunoprecipitation from CaCo2 DRM plasma membrane domains, western blot
[6] = target: T1, plasma membrane fatty acid-binding protein (FABPPM) (human); experiment: as above
caveolin-1 (human) [7] = target: caveolin-1 (human) (UniProt Q03135); experiment: co-immunoprecipitation from HepG2 DRM-PM, western blot; remark: listed apart in the source
[8] = target: CD36 (Cluster of Differentiation 36) (human) (UniProt P16671); experiment: as above
[9] = target: T1, plasma membrane fatty acid-binding protein (FABPPM) (human); experiment: as above; remark: listed apart in the source
[10] = target: CD36 (Cluster of Differentiation 36) (human) (UniProt P16671); experiment: co-immunoprecipitation from HepG2 DRM-PM, western blot (legend of Figure 3)
[11] = target: CD36 (Cluster of Differentiation 36) (human) (UniProt P16671); experiment: co-immunoprecipitation from CaCo2 DRM plasma membrane domains, western blot
[12] = target: CD36 (Cluster of Differentiation 36) (human) (UniProt P16671); experiment: time-dependent complex disassembly after UDCA-LPE, immunoprecipitation of HepG2 DRM-PM and western blot (Fig. 5)
[13] = target: T2, calcium-independent membrane phospholipase A2 (iPLA2ß) (human); experiment: co-immunoprecipitation from HepG2 DRM-PM, western blot

binding (caveolin-1 (human) [1]) | binding [2] | binding (caveolin-1 (human) [3]) | binding [4] | binding (caveolin-1 (human) [5]) | binding [6] | binding (caveolin-1 (human) [7]) | binding [8] | binding [9] | binding [10] | binding [11] | binding [12] | binding [13] | Molecule
binds | binds | binds | binds | binds | binds | – | – | – | – | – | – | – | CD36 (Cluster of Differentiation 36) (from UniProt P16671 2-472) (receptor)
– | – | binds | – | binds | – | binds | – | – | – | – | – | – | plasma membrane fatty acid-binding protein (FABPPM) (protein, human, UniProt P00505 30-430, looked up) SSWWTHVEMGPPDPILGVTEAFKRDTNSKKMNLGVGAYRDDNGKPYVLPSVRKAEAQIAAKNLDKEYLPIGGLAEFCKASAELALGENSEVLKSGRFVTVQTISGTGALRIGASFLQRFFKFSRDVFLPKPTWGNHTPIFRDAGMQLQGYRYYDPKTCGFDFTGAVEDISKIPEQSVLLLHACAHNPTGVDPRPEQWKEIATVVKKRNLFAFFDMAYQGFASGDGDKDAWAVRHFIEQGINVCLCQSYAKNMGLYGERVGAFTMVCKDADEAKRVESQLKILIRPMYSNPPLNGARIAAAILNTPDLRKQWLQEVKVMADRIIGMRTQLVSNLKKEGSTHNWQHITDQIGMFCFTGLKPEQVERLIKEFSIYMTKDGRISVAGVTSSNVGYLAHAIHQVTK
– | – | binds | binds | binds | binds | binds | binds | binds | binds | binds | binds | – | calcium-independent membrane phospholipase A2 (iPLA2ß) (enzyme, human, UniProt O60733 1-806, looked up) MQFFGRLVNTFSGVTNLFSNPFRVKEVAVADYTSSDRVREEGQLILFQNTPNRTWDCVLVNPRNSQSGFRLFQLELEADALVNFHQYSSQLLPFYESSPQVLHTEVLQHLTDLIRNHPSWSVAHLAVELGIRECFHHSRIISCANCAENEEGCTPLHLACRKGDGEILVELVQYCHTQMDVTDYKGETVFHYAVQGDNSQVLQLLGRNAVAGLNQVNNQGLTPLHLACQLGKQEMVRVLLLCNARCNIMGPNGYPIHSAMKFSQKGCAEMIISMDSSQIHSKDPRYGASPLHWAKNAEMARMLLKRGCNVNSTSSAGNTALHVAVMRNRFDCAIVLLTHGANADARGEHGNTPLHLAMSKDNVEMIKALIVFGAEVDTPNDFGETPTFLASKIGRLVTRKAILTLLRTVGAEYCFPPIHGVPAEQGSAAPHHPFSLERAQPPPISLNNLELQDLMHISRARKPAFILGSMRDEKRTHDHLLCLDGGGVKGLIIIQLLIAIEKASGVATKDLFDWVAGTSTGGILALAILHSKSMAYMRGMYFRMKDEVFRGSRPYESGPLEEFLKREFGEHTKMTDVRKPKVMLTGTLSDRQPAELHLFRNYDAPETVREPRFNQNVNLRPPAQPSDQLVWRAARSSGAAPTYFRPNGRFLDGGLLANNPTLDAMTEIHEYNQDLIRKGQANKVKKLSIVVSLGTGRSPQVPVTCVDVFRPSNPWELAKTVFGAKELGKMVVDCCTDPDGRAVDRARAWCEMVGIQYFRLNPQLGTDIMLDEVSDTVLVNALWETEVYIYEHREEFQKLIQLLLSP
– | – | – | – | – | – | binds | binds | binds | – | – | – | binds | flotilin1 (protein, human, UniProt O75955 1-427, looked up) MFFTCGPNEAMVVSGFCRSPPVMVAGGRVFVLPCIQQIQRISLNTLTLNVKSEKVYTRHGVPISVTGIAQVKIQGQNKEMLAAACQMFLGKTEAEIAHIALETLEGHQRAIMAHMTVEEIYKDRQKFSEQVFKVASSDLVNMGISVVSYTLKDIHDDQDYLHSLGKARTAQVQKDARIGEAEAKRDAGIREAKAKQEKVSAQYLSEIEMAKAQRDYELKKAAYDIEVNTRRAQADLAYQLQVAKTKQQIEEQRVQVQVVERAQQVAVQEQEIARREKELEARVRKPAEAERYKLERLAEAEKSQLIMQAEAEAASVRMRGEAEAFAIGARARAEAEQMAKKAEAFQLYQEAAQLDMLLEKLPQVAEEISGPLTSANKITLVSSGSGTMGAAKVTGEVLDILTRLPESVERLTGVSISQVNHKPLRTA
